From PubChem BioAssay AID256 (DTP/NCI, 2004)
The list is a part of this screen's results and no random one: it is rich in T/C values a quarter to a half above the control, in often repeated tests (any T/C) and in doses without a T/C. Other doses and runs of a compound stand elsewhere. T/C is the treated group as % of the vehicle group. Some entries give survivors of the animals treated and no T/C: the source holds a T/C of zero for them, seemingly a mark for toxic or unscored doses. Some survivor counts are full or nearly so, which does not show that the dose was tolerated: the source hardly ever lists a survival T/C far under the control, and the zero likely stands for such cases as well. Counts of survivors are from the toxicity check (mostly the fifth day) where no day follows; animals may have died later. Schedules are NCI's codes, taken here to give the interval after Q, in days (D) or hours (H), and the number of doses after X. Some entries hold several experiments; the results are listed from low to high. Where survival is the endpoint, the PubChem record calls one and a half times the control and up active, and a quarter to a half above the control has no call in these data; cut-offs in other NCI protocols can differ. Some T/C values are followed by the survivors on the day toxicity was checked, most often the fifth; without a count, all were alive then.

System: CD2F1 mice, L1210 leukemia ip, survival T/C
Experiment: NCI In Vivo Anticancer Drug Screen. Data for tumor model L1210 Leukemia (intraperitoneal) in CD2F1 (CDF1) mice
Settings: higher T/C = longer survival
In short: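 Vehicle-treated tumor-bearing mice served as controls (C) for compound-treated mice (T). Reported figure is T divided by C.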

[1] = T/C endpoint: mean survival time, dose: 100.0 mg/kg/injection, schedule: Q01DX009 (ip), vehicle: saline
[2] = T/C endpoint: mean survival time, dose: 8.0 mg/kg/injection, schedule: Q01DX009 (ip), vehicle: saline

SMILES: C[C@H](N)C(=O)N[C@@H]1[C@H]2C(=C(O)C[C@@H](O)[C@@H]2O)C(=O)O[C@]1(C)C(Cl)Cl
- T/C (T/C endpoint: median survival time, dose: 0.19 mg/kg/injection, schedule: Q01DX009 (ip), vehicle: saline): 137 % of control
- T/C (T/C endpoint: median survival time, dose: 0.37 mg/kg/injection, schedule: Q01DX009 (ip), vehicle: saline): 132 % of control
- T/C (T/C endpoint: median survival time, dose: 0.38 mg/kg/injection, schedule: Q01DX009 (ip), vehicle: saline): 135 % of control
- survivor count (T/C endpoint: median survival time, dose: 0.56 mg/kg/injection, schedule: Q03HX024 (ip), vehicle: saline): 2 of 10
- T/C (T/C endpoint: median survival time, dose: 0.68 mg/kg/injection, schedule: Q01DX005 (ip), vehicle: saline): 130 % of control
- T/C (T/C endpoint: median survival time, dose: 0.75 mg/kg/injection, schedule: Q01DX009 (ip), vehicle: Klucel (hydroxypropylcellulose) (HPC)): 117, 143, 155, 163 % of control
- T/C (T/C endpoint: median survival time, dose: 0.75 mg/kg/injection, schedule: Q01DX009 (ip), vehicle: water): 129 % of control
- survivor count (T/C endpoint: median survival time, dose: 0.85 mg/kg/injection, schedule: Q03HX008 (ip), vehicle: saline): 0 of 10
- survivor count (T/C endpoint: median survival time, dose: 1.13 mg/kg/injection, schedule: Q03HX024 (ip), vehicle: saline): 0 of 10
- T/C (T/C endpoint: median survival time, dose: 1.35 mg/kg/injection, schedule: Q01DX005 (ip), vehicle: saline): 146 % of control
- T/C (T/C endpoint: median survival time, dose: 1.35 mg/kg/injection, schedule: Q01DX005 (iv), vehicle: saline): 128 % of control
- T/C (T/C endpoint: median survival time, dose: 1.5 mg/kg/injection, schedule: Q01DX009 (ip), vehicle: Klucel (hydroxypropylcellulose) (HPC)): 143, 171, 182, 187 % of control
- survivor count (T/C endpoint: median survival time, dose: 1.69 mg/kg/injection, schedule: Q03HX008 (ip), vehicle: saline): 0 of 10
- survivor count (T/C endpoint: median survival time, dose: 2.25 mg/kg/injection, schedule: Q03HX024 (ip), vehicle: saline): 0 of 10
- T/C (T/C endpoint: median survival time, dose: 2.7 mg/kg/injection, schedule: Q01DX005 (iv), vehicle: saline): 148 % of control
- T/C (T/C endpoint: median survival time, dose: 3.0 mg/kg/injection, schedule: Q01DX009 (ip), vehicle: Klucel (hydroxypropylcellulose) (HPC)): 101 [4 of 6 alive], 160 [9 of 10 alive], 212, 214 % of control
- T/C (T/C endpoint: median survival time, dose: 3.0 mg/kg/injection, schedule: Q01DX009 (ip), vehicle: saline): 146 % of control [9 of 10 alive]
- T/C (T/C endpoint: median survival time, dose: 3.0 mg/kg/injection, schedule: Q01DX009 (ip), vehicle: water): 147 % of control
- survivor count (T/C endpoint: median survival time, dose: 3.38 mg/kg/injection, schedule: Q03HX008 (ip), vehicle: saline): 0 of 10
- T/C (T/C endpoint: median survival time, dose: 4.5 mg/kg/injection, schedule: Q04DX003 (ip), vehicle: saline): 146 % of control [9 of 10 alive]
- survivor count (T/C endpoint: median survival time, dose: 5.4 mg/kg/injection, schedule: Q01DX005 (ip), vehicle: saline): 4 of 10
- survivor count (T/C endpoint: median survival time, dose: 5.4 mg/kg/injection, schedule: Q01DX005 (iv), vehicle: saline): 1 of 10
- survivor count (T/C endpoint: median survival time, dose: 6.0 mg/kg/injection, schedule: Q01DX009 (ip), vehicle: Klucel (hydroxypropylcellulose) (HPC)): 0 of 6, 1 of 6, 5 of 10, 4 of 6
- survivor count (T/C endpoint: median survival time, dose: 6.0 mg/kg/injection, schedule: Q01DX009 (ip), vehicle: saline): 2 of 10, 3 of 10, 7 of 10
- survivor count (T/C endpoint: median survival time, dose: 6.75 mg/kg/injection, schedule: Q01DX001 (ip), vehicle: saline): 5 of 10
- survivor count (T/C endpoint: median survival time, dose: 6.75 mg/kg/injection, schedule: Q01DX001 (iv), vehicle: saline): 3 of 10
- survivor count (T/C endpoint: median survival time, dose: 6.75 mg/kg/injection, schedule: Q03HX008 (ip), vehicle: saline): 0 of 10
- survivor count (T/C endpoint: median survival time, dose: 9.0 mg/kg/injection, schedule: Q04DX003 (ip), vehicle: saline): 1 of 10
- survivor count (T/C endpoint: median survival time, dose: 10.8 mg/kg/injection, schedule: Q01DX005 (ip), vehicle: saline): 0 of 10
- survivor count (T/C endpoint: median survival time, dose: 12.0 mg/kg/injection, schedule: Q01DX009 (ip), vehicle: saline): 0 of 10
- survivor count (T/C endpoint: median survival time, dose: 13.5 mg/kg/injection, schedule: Q01DX001 (ip), vehicle: saline): 3 of 10
- survivor count (T/C endpoint: median survival time, dose: 13.5 mg/kg/injection, schedule: Q01DX001 (iv), vehicle: saline): 0 of 10
- survivor count (T/C endpoint: median survival time, dose: 18.0 mg/kg/injection, schedule: Q04DX003 (ip), vehicle: saline): 0 of 10
- survivor count (T/C endpoint: median survival time, dose: 27.0 mg/kg/injection, schedule: Q01DX001 (ip), vehicle: saline): 0 of 10
- survivor count (T/C endpoint: median survival time, dose: 27.0 mg/kg/injection, schedule: Q01DX001 (iv), vehicle: saline): 0 of 10
- survivor count (T/C endpoint: median survival time, dose: 48.0 mg/kg/injection, schedule: Q01DX009 (oral), vehicle: saline): 0 of 10
- survivor count (T/C endpoint: median survival time, dose: 54.0 mg/kg/injection, schedule: Q01DX001 (ip), vehicle: saline): 0 of 10

SMILES: CC1C[C@@H](O)C(NC(=O)N(CCCl)N=O)[C@@H](O)C1 (some centres undefined)
- survivor count (T/C endpoint: mean survival time, dose: 45.0 mg/kg/injection, schedule: Q01DX001 (ip), vehicle: saline): 10 of 10
- survivor count (T/C endpoint: mean survival time, dose: 67.0 mg/kg/injection, schedule: Q01DX001 (ip), vehicle: saline): 8 of 10

SMILES: Nc1nc(N)c2cc(NCc3ccc(Cl)c(Cl)c3)ccc2n1
- survivor count (T/C endpoint: mean survival time, dose: 75.0 mg/kg/injection, schedule: Q01DX001 (ip), vehicle: saline): 3 of 6
- survivor count (T/C endpoint: mean survival time, dose: 150.0 mg/kg/injection, schedule: Q01DX001 (ip), vehicle: saline): 0 of 6
- survivor count (T/C endpoint: mean survival time, dose: 300.0 mg/kg/injection, schedule: Q01DX001 (ip), vehicle: saline): 0 of 6

SMILES: CO/N=C/c1ccc([N+](=O)[O-])s1
- survivor count [1]: 2 of 6
- survivor count (T/C endpoint: mean survival time, dose: 200.0 mg/kg/injection, schedule: Q01DX009 (ip), vehicle: saline): 1 of 6

SMILES: O=C(C[n+]1ccc2ccccc2c1)c1ccc(Br)cc1
- survivor count [1]: 1 of 6
- survivor count (T/C endpoint: mean survival time, dose: 200.0 mg/kg/injection, schedule: Q04DX003 (ip), vehicle: saline): 2 of 6
- survivor count (T/C endpoint: mean survival time, dose: 400.0 mg/kg/injection, schedule: Q04DX003 (ip), vehicle: saline): 2 of 6

SMILES: Nc1ncnc2c1ncn2C1C=C(CO)C(O)C1O (centres undefined)
- T/C (T/C endpoint: mean survival time, dose: 0.5 mg/kg/injection, schedule: Q01DX009 (ip), vehicle: saline): 107 [9 of 10 alive], 122, 127 [5 of 6 alive], 129, 153 % of control
- T/C (T/C endpoint: mean survival time, dose: 1.0 mg/kg/injection, schedule: Q01DX009 (ip), vehicle: Klucel (hydroxypropylcellulose) (HPC)): 129 % of control
- T/C (T/C endpoint: mean survival time, dose: 1.0 mg/kg/injection, schedule: Q01DX009 (ip), vehicle: saline): 121 [9 of 10 alive], 132, 135, 152, 162 % of control
- T/C (T/C endpoint: mean survival time, dose: 2.0 mg/kg/injection, schedule: Q01DX009 (ip), vehicle: Klucel (hydroxypropylcellulose) (HPC)): 127 and 140 % of control
- T/C (T/C endpoint: mean survival time, dose: 2.0 mg/kg/injection, schedule: Q01DX009 (ip), vehicle: saline): 130, 132, 152, 153, 196 % of control
- T/C (T/C endpoint: mean survival time, dose: 4.0 mg/kg/injection, schedule: Q01DX009 (ip), vehicle: Klucel (hydroxypropylcellulose) (HPC)): 147 % of control
- T/C (T/C endpoint: mean survival time, dose: 4.0 mg/kg/injection, schedule: Q01DX009 (ip), vehicle: saline): 144, 155, 165, 177 [9 of 10 alive], 224 % of control
- survivor count (T/C endpoint: mean survival time, dose: 8.0 mg/kg/injection, schedule: Q01DX009 (ip), vehicle: Klucel (hydroxypropylcellulose) (HPC)): 6 of 10
- T/C [2]: 99 [7 of 10 alive] and 150 % of control
- survivor count [2]: 0 of 10, 0 of 6, 3 of 6
- survivor count (T/C endpoint: mean survival time, dose: 16.0 mg/kg/injection, schedule: Q01DX009 (ip), vehicle: saline): 0 of 6 and 3 of 6

SMILES: O=C(O)/C=N/NS(=O)(=O)c1ccc(Cl)cc1
- T/C (T/C endpoint: mean survival time, dose: 100.0 mg/kg/injection, schedule: Q04DX003 (ip), vehicle: other): 128 and 132 % of control
- T/C (T/C endpoint: mean survival time, dose: 200.0 mg/kg/injection, schedule: Q04DX003 (ip), vehicle: other): 143 % of control
- survivor count (T/C endpoint: mean survival time, dose: 400.0 mg/kg/injection, schedule: Q04DX003 (ip), vehicle: other): 2 of 6

SMILES: Cc1ncc(COP(=O)(O)O)c(C=NC(CCCCN)C(=O)O)c1O.O.[Cu] (centres undefined)
- survivor count (T/C endpoint: mean survival time, dose: 100.0 mg/kg/injection, schedule: Q01DX001 (ip), vehicle: saline with Tween-80): 0 of 3
- survivor count (T/C endpoint: mean survival time, dose: 200.0 mg/kg/injection, schedule: Q01DX001 (ip), vehicle: saline with Tween-80): 0 of 3
- survivor count (T/C endpoint: mean survival time, dose: 400.0 mg/kg/injection, schedule: Q01DX001 (ip), vehicle: saline with Tween-80): 1 of 3
